In paper PMC5062114 (Scientific Reports, 2016):
Some peptides are written in HELM: one residue between dots, names in brackets for other building blocks, links after the first $.

Assay: solid-phase peptide synthesis
Details: whole synthesis, Nexera UHPLC (Shimadzu), scale of the general procedure 0.5 mmol

For “PEPTIDE1{C.P.K.I.L.K.K.C.R.R.D.S.D.C.P.G.A.C.I.C.R.Y.[dW].K.V.C.G.Y.H.L.N.Q.P.F.G}$PEPTIDE1,PEPTIDE1,1:R3-18:R3|PEPTIDE1,PEPTIDE1,8:R3-20:R3|PEPTIDE1,PEPTIDE1,14:R3-26:R3|PEPTIDE1,PEPTIDE1,1:R1-35:R2$$$V2.0”, the “final HPLC purity” value was >95%.
